Measurements taken from patent publication US20160186164.
For some assays here: A weaker result is weaker than the reference pair of the same experiment.

Experiments:
[1] = biological target: p50-Tth DNA ligase fusion (EE0217, 4-2-5-3) (Homo sapiens / Thermus thermophilus) (UniProt P26996); assay: activity assay; conditions: blunt-end ligation at 75 C, agarose gel; concatamers; purified recombinant protein
[2] = system: p50-T4 DNA ligase fusion (4-2-5-8) (Homo sapiens / Enterobacteria phage T4); assay: activity assay; conditions: blunt-end ligation at 75 C, agarose gel; purified recombinant protein

AATTCTCTTTAAATAAACCCAAGGTCTCAGATTTCATGCAGATTGTGTC (double strand) [EE0139/EE0140 49-bp blunt duplex]
activity on this sequence [1]: active
activity on this sequence [2]: less active
